The chains behind the UniProt entries cited, without tags or fusion partners. Residues count along the entry.
UniProt O95714: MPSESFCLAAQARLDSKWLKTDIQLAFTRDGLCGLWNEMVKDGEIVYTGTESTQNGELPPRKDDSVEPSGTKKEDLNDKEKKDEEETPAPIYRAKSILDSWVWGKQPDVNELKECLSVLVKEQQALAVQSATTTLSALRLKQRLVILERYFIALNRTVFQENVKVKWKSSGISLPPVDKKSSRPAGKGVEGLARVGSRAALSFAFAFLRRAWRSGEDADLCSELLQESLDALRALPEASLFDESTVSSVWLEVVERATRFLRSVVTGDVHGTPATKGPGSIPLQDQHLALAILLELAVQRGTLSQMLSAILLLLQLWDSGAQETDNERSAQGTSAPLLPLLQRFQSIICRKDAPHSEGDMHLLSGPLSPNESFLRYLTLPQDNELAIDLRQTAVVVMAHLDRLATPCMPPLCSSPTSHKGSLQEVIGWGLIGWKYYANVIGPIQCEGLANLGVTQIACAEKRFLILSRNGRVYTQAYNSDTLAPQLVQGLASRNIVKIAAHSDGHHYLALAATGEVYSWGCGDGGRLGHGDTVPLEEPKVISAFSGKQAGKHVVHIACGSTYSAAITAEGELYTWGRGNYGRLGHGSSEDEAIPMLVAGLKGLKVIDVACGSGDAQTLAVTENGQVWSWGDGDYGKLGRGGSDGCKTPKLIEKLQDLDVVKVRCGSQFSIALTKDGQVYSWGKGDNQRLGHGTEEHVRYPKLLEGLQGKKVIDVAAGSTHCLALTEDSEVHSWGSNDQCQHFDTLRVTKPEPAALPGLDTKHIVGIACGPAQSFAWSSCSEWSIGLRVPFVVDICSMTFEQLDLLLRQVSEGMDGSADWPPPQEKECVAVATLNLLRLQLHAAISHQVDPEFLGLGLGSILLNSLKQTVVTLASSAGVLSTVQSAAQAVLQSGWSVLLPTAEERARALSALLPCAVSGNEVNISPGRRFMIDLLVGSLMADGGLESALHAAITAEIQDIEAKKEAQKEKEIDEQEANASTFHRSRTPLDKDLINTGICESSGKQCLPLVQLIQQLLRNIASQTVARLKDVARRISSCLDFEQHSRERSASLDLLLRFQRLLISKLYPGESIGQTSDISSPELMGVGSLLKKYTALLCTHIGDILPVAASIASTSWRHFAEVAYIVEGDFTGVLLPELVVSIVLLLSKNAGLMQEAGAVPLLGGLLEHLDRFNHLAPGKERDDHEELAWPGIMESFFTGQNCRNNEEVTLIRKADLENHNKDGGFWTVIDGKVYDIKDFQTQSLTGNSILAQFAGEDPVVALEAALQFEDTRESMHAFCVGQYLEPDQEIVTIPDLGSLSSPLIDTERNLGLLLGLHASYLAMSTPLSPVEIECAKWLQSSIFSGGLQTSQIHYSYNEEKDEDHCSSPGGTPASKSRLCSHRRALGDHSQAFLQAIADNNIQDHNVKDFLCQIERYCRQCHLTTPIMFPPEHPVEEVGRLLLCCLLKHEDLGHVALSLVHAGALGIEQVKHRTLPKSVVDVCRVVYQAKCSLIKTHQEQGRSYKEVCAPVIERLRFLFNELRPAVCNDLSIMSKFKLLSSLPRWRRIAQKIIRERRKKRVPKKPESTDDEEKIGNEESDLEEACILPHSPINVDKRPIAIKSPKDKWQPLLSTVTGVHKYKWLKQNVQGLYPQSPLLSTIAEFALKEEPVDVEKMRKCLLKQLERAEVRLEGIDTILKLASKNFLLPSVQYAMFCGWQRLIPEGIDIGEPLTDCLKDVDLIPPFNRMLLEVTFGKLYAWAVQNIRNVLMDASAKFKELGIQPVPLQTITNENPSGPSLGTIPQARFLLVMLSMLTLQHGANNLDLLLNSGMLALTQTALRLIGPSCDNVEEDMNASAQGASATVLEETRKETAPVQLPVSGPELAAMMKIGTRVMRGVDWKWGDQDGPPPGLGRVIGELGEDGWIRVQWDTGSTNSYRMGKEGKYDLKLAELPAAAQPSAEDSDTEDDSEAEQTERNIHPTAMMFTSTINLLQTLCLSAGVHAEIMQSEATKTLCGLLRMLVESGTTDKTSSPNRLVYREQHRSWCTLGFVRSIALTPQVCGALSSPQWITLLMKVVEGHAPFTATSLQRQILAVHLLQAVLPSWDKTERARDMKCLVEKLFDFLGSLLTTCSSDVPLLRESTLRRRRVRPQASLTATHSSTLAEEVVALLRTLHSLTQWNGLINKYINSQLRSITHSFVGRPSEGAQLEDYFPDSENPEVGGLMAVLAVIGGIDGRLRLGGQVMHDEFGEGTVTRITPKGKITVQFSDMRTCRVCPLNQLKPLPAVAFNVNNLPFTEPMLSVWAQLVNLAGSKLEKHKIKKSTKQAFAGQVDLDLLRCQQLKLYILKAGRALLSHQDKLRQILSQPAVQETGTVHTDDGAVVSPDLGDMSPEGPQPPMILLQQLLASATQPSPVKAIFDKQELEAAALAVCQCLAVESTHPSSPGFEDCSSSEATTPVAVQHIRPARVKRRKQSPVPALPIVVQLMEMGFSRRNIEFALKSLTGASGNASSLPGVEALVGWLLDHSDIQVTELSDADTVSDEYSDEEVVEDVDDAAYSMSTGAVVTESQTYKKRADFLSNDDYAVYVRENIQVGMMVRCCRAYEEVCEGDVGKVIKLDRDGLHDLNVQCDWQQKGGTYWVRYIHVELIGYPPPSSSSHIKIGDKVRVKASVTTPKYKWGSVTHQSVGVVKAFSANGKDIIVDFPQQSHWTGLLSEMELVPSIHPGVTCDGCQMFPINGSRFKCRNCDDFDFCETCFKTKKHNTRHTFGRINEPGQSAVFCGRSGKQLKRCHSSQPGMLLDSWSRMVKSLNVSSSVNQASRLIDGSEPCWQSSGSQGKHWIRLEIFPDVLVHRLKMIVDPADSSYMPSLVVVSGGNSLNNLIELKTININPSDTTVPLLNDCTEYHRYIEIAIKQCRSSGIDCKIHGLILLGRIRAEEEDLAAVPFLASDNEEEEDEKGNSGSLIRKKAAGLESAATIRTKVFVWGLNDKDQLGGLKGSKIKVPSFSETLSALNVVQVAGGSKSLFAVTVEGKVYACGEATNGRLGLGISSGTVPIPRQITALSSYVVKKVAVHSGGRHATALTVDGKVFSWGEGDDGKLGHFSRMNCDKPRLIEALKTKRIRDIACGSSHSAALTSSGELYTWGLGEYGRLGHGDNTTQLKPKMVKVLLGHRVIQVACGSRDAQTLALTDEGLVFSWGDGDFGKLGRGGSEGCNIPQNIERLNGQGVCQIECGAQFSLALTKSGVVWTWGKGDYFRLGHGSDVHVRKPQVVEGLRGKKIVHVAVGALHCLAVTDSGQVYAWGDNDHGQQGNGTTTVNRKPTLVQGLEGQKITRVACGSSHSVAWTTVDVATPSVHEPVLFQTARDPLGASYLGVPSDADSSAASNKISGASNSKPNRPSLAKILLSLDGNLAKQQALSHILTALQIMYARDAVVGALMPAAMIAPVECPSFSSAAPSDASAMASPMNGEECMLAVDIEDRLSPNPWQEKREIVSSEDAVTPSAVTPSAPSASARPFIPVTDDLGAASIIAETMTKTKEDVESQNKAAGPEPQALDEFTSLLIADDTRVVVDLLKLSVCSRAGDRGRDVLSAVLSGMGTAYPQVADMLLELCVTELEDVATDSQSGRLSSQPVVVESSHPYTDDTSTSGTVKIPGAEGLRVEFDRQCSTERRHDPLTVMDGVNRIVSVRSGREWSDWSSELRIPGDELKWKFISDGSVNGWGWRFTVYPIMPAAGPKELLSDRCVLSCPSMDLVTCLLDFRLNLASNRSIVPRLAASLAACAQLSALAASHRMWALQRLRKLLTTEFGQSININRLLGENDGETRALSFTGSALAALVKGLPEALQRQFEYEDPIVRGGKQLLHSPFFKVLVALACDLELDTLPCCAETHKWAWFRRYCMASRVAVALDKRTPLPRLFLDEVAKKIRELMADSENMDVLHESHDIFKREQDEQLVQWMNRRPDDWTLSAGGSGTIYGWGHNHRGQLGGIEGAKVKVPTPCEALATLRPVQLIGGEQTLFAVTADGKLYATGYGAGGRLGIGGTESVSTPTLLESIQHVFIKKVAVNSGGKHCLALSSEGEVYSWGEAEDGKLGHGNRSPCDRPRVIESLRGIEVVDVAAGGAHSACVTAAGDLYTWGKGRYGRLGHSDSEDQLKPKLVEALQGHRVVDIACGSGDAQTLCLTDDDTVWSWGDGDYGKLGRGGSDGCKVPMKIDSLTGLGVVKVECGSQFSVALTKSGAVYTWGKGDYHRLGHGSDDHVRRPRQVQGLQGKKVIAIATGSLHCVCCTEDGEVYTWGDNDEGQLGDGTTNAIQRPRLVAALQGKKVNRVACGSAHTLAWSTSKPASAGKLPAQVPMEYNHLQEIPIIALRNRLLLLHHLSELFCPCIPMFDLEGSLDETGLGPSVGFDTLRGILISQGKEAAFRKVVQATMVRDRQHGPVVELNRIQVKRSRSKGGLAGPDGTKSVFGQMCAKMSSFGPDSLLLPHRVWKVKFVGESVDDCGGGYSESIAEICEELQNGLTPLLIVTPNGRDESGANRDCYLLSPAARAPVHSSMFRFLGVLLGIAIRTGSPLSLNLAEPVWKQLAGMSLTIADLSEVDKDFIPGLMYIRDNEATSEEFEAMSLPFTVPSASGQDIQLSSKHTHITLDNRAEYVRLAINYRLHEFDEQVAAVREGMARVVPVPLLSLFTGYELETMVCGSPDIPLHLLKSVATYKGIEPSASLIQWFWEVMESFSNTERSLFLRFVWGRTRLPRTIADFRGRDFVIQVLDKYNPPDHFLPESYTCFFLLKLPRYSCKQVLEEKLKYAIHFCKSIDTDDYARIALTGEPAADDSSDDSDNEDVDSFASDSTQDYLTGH
UniProt Q13510, residues 22-395: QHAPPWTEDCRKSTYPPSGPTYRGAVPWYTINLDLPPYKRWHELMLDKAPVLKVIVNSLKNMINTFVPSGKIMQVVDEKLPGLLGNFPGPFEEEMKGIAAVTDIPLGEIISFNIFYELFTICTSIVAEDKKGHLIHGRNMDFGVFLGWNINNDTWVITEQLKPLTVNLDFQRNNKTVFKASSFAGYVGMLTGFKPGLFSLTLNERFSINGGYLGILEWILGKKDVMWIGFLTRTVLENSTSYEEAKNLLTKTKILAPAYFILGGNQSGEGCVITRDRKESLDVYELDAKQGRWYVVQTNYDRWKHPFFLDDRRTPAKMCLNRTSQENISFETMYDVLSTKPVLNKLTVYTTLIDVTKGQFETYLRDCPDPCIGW

According to PMC8118655:

These substances were tested against T1, ubiquitin domain-containing protein 1 (UBTD1) (human (endogenous in DU145)) (UniProt Q9HAC8) (assay: affinity purification with mass spectrometry; immunoprecipitation of endogenous UBTD1 (bait) from DU145 lysate in mild stringency NP40 buffer; partners identified by LC-MS/MS).
T1 sequence: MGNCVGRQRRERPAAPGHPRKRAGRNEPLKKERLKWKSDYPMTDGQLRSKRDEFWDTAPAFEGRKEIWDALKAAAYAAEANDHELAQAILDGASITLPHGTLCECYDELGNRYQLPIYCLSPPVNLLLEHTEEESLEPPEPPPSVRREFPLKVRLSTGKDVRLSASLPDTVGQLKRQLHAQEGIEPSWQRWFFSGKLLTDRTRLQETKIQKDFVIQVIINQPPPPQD

binding	Substance
binds	E3 ligase HERC2 (from UniProt O95714 1-4834) (enzyme)
binds	N-acylsphingosine amidohydrolase 1 (ASAH1), lysosomal ceramidase (from UniProt Q13510 22-395) (enzyme)
binds	Sequestosome 1 (SQSTM1/p62) (from UniProt Q13501 1-440)
binds	epidermal growth factor receptor (EGFR) (from UniProt P00533 25-1210)

No constants are given. Whether binding was seen depends on the method and setting. Binding seen in cells or lysates may run through a third protein. A yes stands for co-enrichment or nearness to the bait. Other partners may have been found.
